Assay results reported in the supplement of paper PMC12823440, “Inhibitors supercharge kinase turnover through native proteolytic circuits” (Nature, 2025).
Structures can show the parent of a compound that is named as a salt. Some of the results follow. The calls rarely recur for the same compound in another form.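 Kinases were expressed as nanoluciferase fusions in K562 cells and luminescence was read every 4 h between 2 and 18 h as percent of control, DMSO set to 100% and a positive control to 0%. A time point counts as decreased when the signal drops significantly (2 sigma). The hit call is the authors' own, does not follow from the count of time points alone, and its rule is not shown.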

Protein sequences, listed by entry. Tags and fused reporters are not part of them. Lines headed by an entry give the natural chain unless they say otherwise; changes in a name come on top.
UniProt P48729: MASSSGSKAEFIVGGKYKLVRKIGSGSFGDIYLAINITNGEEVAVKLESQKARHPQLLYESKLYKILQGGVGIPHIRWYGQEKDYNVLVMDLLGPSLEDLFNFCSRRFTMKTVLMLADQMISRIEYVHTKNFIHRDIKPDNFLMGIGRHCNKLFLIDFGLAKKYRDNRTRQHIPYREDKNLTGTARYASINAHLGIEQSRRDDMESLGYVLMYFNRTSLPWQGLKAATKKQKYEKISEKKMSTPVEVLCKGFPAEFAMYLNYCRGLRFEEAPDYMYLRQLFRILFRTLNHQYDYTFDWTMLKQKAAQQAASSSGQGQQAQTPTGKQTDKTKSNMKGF
UniProt P48730: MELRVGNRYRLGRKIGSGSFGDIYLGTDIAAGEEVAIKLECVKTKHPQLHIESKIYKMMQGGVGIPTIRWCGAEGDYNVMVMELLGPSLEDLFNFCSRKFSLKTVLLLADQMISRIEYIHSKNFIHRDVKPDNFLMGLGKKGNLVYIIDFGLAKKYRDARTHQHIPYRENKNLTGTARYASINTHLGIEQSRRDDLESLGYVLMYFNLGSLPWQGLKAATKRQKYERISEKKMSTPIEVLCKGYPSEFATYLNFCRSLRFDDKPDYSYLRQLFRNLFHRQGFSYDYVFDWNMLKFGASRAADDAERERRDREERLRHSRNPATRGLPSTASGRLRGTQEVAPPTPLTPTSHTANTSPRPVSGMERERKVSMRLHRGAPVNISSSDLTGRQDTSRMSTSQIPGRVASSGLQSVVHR
UniProt Q08345: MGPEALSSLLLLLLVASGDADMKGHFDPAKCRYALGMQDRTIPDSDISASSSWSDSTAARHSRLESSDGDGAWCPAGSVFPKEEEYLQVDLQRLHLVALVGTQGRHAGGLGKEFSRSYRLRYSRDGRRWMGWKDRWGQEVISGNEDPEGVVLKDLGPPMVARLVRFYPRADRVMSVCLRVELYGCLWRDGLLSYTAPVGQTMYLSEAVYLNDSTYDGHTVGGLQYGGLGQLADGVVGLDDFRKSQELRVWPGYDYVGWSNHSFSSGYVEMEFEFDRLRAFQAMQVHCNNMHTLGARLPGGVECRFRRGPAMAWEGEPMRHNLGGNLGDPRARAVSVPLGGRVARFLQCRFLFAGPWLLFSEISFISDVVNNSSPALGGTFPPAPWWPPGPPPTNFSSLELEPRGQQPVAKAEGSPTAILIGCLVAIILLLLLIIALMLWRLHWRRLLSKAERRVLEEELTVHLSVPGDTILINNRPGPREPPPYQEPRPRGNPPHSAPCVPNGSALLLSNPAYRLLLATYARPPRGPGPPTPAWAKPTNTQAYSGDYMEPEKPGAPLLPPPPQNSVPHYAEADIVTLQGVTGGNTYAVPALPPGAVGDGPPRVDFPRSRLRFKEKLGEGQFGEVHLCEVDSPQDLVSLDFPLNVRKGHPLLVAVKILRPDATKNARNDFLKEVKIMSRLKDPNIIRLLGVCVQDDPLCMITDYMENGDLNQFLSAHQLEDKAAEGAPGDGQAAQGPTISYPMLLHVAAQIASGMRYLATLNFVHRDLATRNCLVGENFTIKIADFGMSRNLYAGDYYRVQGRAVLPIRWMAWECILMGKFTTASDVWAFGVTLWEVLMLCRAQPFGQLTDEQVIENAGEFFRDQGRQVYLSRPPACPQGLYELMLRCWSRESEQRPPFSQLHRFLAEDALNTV
UniProt Q9Y463, whole entry, looked up: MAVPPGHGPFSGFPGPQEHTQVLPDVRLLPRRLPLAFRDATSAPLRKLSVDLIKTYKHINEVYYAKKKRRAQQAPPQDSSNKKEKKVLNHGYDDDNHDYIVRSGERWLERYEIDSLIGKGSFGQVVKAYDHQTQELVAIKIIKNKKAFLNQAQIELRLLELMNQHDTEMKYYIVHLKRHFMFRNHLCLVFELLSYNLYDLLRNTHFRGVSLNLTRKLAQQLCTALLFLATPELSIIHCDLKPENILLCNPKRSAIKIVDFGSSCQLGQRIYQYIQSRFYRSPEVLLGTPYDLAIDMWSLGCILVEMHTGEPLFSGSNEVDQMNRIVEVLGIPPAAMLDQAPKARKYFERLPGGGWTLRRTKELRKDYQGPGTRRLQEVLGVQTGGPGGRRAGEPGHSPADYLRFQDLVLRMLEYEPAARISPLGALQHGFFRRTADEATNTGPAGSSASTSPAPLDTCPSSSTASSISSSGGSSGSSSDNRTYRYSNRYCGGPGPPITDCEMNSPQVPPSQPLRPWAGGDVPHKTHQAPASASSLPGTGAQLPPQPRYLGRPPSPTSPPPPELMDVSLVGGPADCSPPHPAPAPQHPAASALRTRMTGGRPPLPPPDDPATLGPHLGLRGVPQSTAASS
UniProt Q92630: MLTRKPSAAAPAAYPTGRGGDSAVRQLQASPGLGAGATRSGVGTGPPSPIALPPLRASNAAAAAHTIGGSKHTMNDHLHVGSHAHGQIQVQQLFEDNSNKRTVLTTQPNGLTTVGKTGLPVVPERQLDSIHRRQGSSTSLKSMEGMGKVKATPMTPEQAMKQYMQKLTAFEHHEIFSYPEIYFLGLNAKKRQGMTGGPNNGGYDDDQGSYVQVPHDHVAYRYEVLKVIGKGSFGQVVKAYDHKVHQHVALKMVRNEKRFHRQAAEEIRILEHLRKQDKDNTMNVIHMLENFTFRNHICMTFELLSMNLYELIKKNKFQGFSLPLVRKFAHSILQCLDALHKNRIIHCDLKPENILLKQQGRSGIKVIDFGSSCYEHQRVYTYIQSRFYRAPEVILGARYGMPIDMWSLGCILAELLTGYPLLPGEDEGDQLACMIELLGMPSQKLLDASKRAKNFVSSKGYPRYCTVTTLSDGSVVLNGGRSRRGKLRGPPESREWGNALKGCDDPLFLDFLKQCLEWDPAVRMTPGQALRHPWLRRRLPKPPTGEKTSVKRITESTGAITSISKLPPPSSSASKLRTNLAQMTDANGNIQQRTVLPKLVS

Key:
Experiment in all cases: number of time points (of 5) at which kinase-Nluc abundance scored as decreased, DMSO-normalised (count); higher = more persistent destabilization
Conditions in all cases: K562; 2-18 h
CSNK1A1 = CSNK1A1 (UniProt P48729)
CSNK1D = CSNK1D (UniProt P48730)
DDR1 = DDR1 (UniProt Q08345)
DYRK1B = DYRK1B (UniProt Q9Y463)
DYRK2 = DYRK2 (UniProt Q92630)
EGFR = EGFR (UniProt P00533)
EGFR_G719S = EGFR_G719S (UniProt P00533)
EGFR_G719S_T790M = EGFR_G719S_T790M (UniProt P00533)
EGFR_L718V = EGFR_L718V (UniProt P00533)
EGFR_L858R = EGFR_L858R (UniProt P00533)

| SMILES | number of time points (CSNK1A1) | number of time points (CSNK1D) | number of time points (DDR1) | number of time points (DYRK1B) | number of time points (DYRK2) | number of time points (EGFR) | number of time points (EGFR_G719S) | number of time points (EGFR_G719S_T790M) | number of time points (EGFR_L718V) | number of time points (EGFR_L858R) |
| --- | --- | --- | --- | --- | --- | --- | --- | --- | --- | --- |
| CC1=C(C(=O)Nc2cc3cn[nH]c3cc2F)C(c2ccc(C(F)(F)F)cc2)CC(=O)N1 (stereo not given) (10 µM) | 0 | 0 | 0 | 0 | 0 | 0 | 0 | 0 | 0 | 0 |
| CCn1c(-c2nonc2N)nc2c(C#CC(C)(C)O)ncc(OC[C@H]3CCCNC3)c21 (10 µM) | 1 | 0 | 0 | 0 | 0 | 0 | 0 | 0 | 0 | 0 |
| CCc1c[nH]c2ncnc(N3CC[C@](N)(CNC(=O)c4ccc(F)cc4F)C3)c12 (10 µM) | 0 | 0 | 0 | 0 | 0 | 0 | 0 | 0 | 0 | 0 |
| Cc1cc(C(=O)NC(C)(C)C)cc(C#Cc2ccc3c4c(oc3c2)C(C)(C)c2cc(NS(C)(=O)=O)ccc2C4=O)n1 (10 µM) | 0 | 0 | 0 | 0 | 0 | 0 | 0 | 0 | 0 | 0 |
| O=C(Nc1cccc(-c2nc(-c3ccc(NC(=O)c4cccnc4)cc3Cl)no2)c1)Nc1ccc(NC(=O)C2CC2)c(C(F)(F)F)c1 (2.5 µM) | 0 | 0 | 0 | 0 | 0 | 0 | 0 | 0 | 0 | 0 |
| O=C(NCCO)c1cc(C(=O)NCCO)cc(C(=O)NCCO)c1 (10 µM) | 0 | 0 | 0 | 0 | 0 | 0 | 0 | 0 | 0 | 0 |
| N[C@@H]1CCCN(c2c(/C=C3\SC(=O)NC3=O)cccc2-c2ccccc2)C1 (10 µM) | 0 | 0 | 0 | 0 | 4 | 0 | 0 | 0 | 0 | 0 |
| CC(C)=CC[C@@H](O)C1=CC(=O)c2c(O)ccc(O)c2C1=O [Shikonin] (10 µM) | 0 | 0 | 0 | 0 | 0 | 0 | 0 | 0 | 0 | 0 |
| O=C(Nc1cc(Cl)cc2c1[nH]c1cnccc12)c1cccnc1 (10 µM) | 0 | 0 | 0 | 0 | 0 | 0 | 0 | 0 | 0 | 0 |
| O=c1c2c([nH]n1-c1nc3ccccc3s1)CCCC2 (10 µM) | 0 | 0 | 0 | 0 | 0 | 0 | 0 | 0 | 0 | 0 |
| COC(=O)Nc1ccc(-c2nc(N3CCOCC3)c3cnn(C4CCN(Cc5cccnc5)CC4)c3n2)cc1 (10 µM) | 0 | 0 | 0 | 0 | 0 | 0 | 0 | 0 | 0 | 0 |
| CN1CCC(CNc2ccc3ncc(-c4cccc(OC(F)(F)F)c4)n3n2)CC1 (2.5 µM) | 0 | 0 | 0 | 0 | 0 | 0 | 0 | 0 | 0 | 0 |
| O=C1CC[C@H](NC(=O)Cc2ccccc2)C(=O)N1 [Antineoplaston A10] (10 µM) | 0 | 0 | 0 | 0 | 0 | 0 | 0 | 0 | 0 | 0 |
| CC1CN(CC2CCN(Cc3ccccc3)CC2)C(=O)N(c2cccc(C(=N)N)c2)C1 (stereo not given) (10 µM) | 0 | 0 | 0 | 0 | 0 | 0 | 0 | 0 | 0 | 0 |
| COc1cc2c(cc1OC)/C(=C/c1ccc(O)cc1)C(=O)N2 (10 µM) | 0 | 0 | 0 | 0 | 0 | 0 | 0 | 0 | 0 | 0 |
| C[C@@H]1O[C@@H](Oc2cc(O)c3c(=O)c(O[C@@H]4O[C@@H](C)[C@H](O)[C@@H](O)[C@H]4O)c(-c4ccc(O)cc4)oc3c2)[C@H](O)[C@H](O)[C@H]1O [Kaempferitrin] (10 µM) | 0 | 0 | 0 | 0 | 0 | 0 | 0 | 0 | 0 | 0 |
| NCCOc1ccc(Cl)cc1C(=O)Nc1ccc([N+](=O)[O-])cc1Cl [HJC0152 hydrochloride] (2 µM) | 0 | 0 | 0 | 0 | 0 | 0 | 0 | 0 | 0 | 0 |
| N#Cc1ccc2ncnc(NCCc3ccccc3)c2c1 [Senexin A] (10 µM) | 0 | 0 | 0 | 0 | 0 | 0 | 0 | 0 | 0 | 0 |
| Cc1nn(C)cc1-c1nc2c(N3CCN(Cc4ccc(Cl)cc4)CC3)c(Cl)cnc2[nH]1 (10 µM) | 0 | 0 | 0 | 0 | 0 | 0 | 0 | 0 | 0 | 0 |

| SMILES | number of time points (CSNK1A1) | number of time points (CSNK1D) | number of time points (DDR1) | number of time points (DYRK1B) | number of time points (DYRK2) | number of time points (EGFR) | number of time points (EGFR_G719S) | number of time points (EGFR_G719S_T790M) | number of time points (EGFR_L718V) | number of time points (EGFR_L858R) |
| --- | --- | --- | --- | --- | --- | --- | --- | --- | --- | --- |
| COc1cc2cc(Oc3ccc4ccc(=O)oc4c3)c(=O)oc2cc1O [Daphnoretin] (10 µM) | 2 | 0 | 0 | 0 | 0 | 0 | 0 | 0 | 0 | 0 |
| COc1cc(N2CCC(N3CCN(C)CC3)CC2)ccc1Nc1ncc(Cl)c(-c2c[nH]c3ccccc23)n1 (2.5 µM) | 0 | 0 | 0 | 0 | 0 | 0 | 0 | 0 | 0 | 0 |
| Nc1ncc(C(=O)NC2CN(C(=O)C3CC3)C2)c2ccc(-c3cccc(F)c3)nc12 (2 µM) | 0 | 0 | 0 | 0 | 0 | 0 | 0 | 0 | 0 | 0 |
| O=C(O)c1cc(N(Cc2ccccc2O)Cc2cc(O)ccc2O)ccc1O [Lavendustin A] (10 µM) | 0 | 0 | 0 | 0 | 0 | 0 | 0 | 0 | 0 | 0 |
| O=c1cc(N2CCOCC2)oc2c(-c3ccc4c(c3)OCCO4)csc12 (2.5 µM) | 0 | 0 | 0 | 0 | 0 | 0 | 0 | 0 | 0 | 0 |
| c1ccc(Cn2c(-c3ccc(OC[C@H](C4CCNCC4)n4c(-c5ccccc5)nc5ccccc54)cc3)nc3ccccc32)cc1 [Deltarasin] (2.5 µM) | 0 | 0 | 0 | 0 | 0 | 0 | 0 | 0 | 0 | 0 |
| Cc1cccc(/C=N/Nc2cc(N3CCOCC3)n3nc(-c4ccncc4)cc3n2)c1 (10 µM) | 0 | 0 | 0 | 0 | 1 | 0 | 0 | 0 | 0 | 0 |
| Cc1cccc(-c2[nH]ncc2-c2ccnc3ccccc23)n1 (10 µM) | 0 | 0 | 0 | 0 | 0 | 0 | 0 | 0 | 0 | 0 |
| O=c1cc(-c2ccccc2)oc2cc(O[C@@H]3O[C@H](CO[C@@H]4O[C@H](CO)[C@@H](O)[C@H](O)[C@H]4O)[C@@H](O)[C@H](O)[C@H]3O)c(O)c(O)c12 [Oroxin B] (10 µM) | 0 | 0 | 0 | 0 | 0 | 0 | 0 | 0 | 0 | 0 |
| C=CC(=O)N1CCN(C(=O)CNc2cc(I)c(Cl)cc2O)CC1 [K-Ras(G12C) inhibitor 12] (10 µM) | 0 | 0 | 0 | 0 | 0 | 0 | 0 | 0 | 0 | 0 |
| CCCn1/c(=N/C(=O)c2cccc(C(N)=O)c2)[nH]c2ccccc21 [Takinib] (10 µM) | 0 | 0 | 0 | 0 | 0 | 0 | 0 | 0 | 0 | 0 |
| COc1cc(N2CCOCC2)ccc1Nc1ncc(F)c(Nc2ccccc2NS(C)(=O)=O)n1 (10 µM) | 0 | 0 | 0 | 0 | 0 | 0 | 0 | 0 | 0 | 0 |
| COc1cc2c(cc1Nc1ncc(C(N)=O)c(Nc3c(F)cccc3C(F)(F)F)n1)CN(C)CC2 (2.5 µM) | 0 | 0 | 0 | 0 | 0 | 0 | 0 | 0 | 0 | 0 |
| Cc1nc[nH]c1CN1CCN(C(=O)N[C@@H](CC(C)C)C(=O)O)[C@@H](Cc2ccccc2)C1=O (10 µM) | 0 | 0 | 0 | 0 | 0 | 0 | 0 | 0 | 0 | 0 |
| CO[C@H]1CC[C@H](N2C(=O)CNc3ncc(-c4ccc(C(C)(C)O)nc4)nc32)CC1 (2.5 µM) | 0 | 0 | 0 | 0 | 0 | 0 | 0 | 0 | 0 | 0 |
| CC(C)(C)Cc1[nH]nc2c1[C@@](C)(c1ccccc1)C1=C(CC(C)(C)CC1=O)N2 (10 µM) | 0 | 0 | 0 | 0 | 0 | 0 | 0 | 0 | 0 | 0 |
| COc1ccc(Br)cc1NC(=O)Nc1cccc2c1ccn2Cc1ccnc(N)c1 (2.5 µM) | 0 | 0 | 0 | 0 | 2 | 0 | 0 | 0 | 0 | 0 |
| CC(C)Oc1ccc(F)c(-c2cnc(N)c(C(=O)Nc3cnccc3N3CCC[C@@H](C(=O)O)C3)n2)c1 (2 µM) | 0 | 0 | 1 | 0 | 3 | 0 | 0 | 0 | 0 | 1 |

Whole records, quoted from the list. Order of values: number of time points (CSNK1A1)	number of time points (CSNK1D)	number of time points (DDR1)	number of time points (DYRK1B)	number of time points (DYRK2)	number of time points (EGFR)	number of time points (EGFR_G719S)	number of time points (EGFR_G719S_T790M)	number of time points (EGFR_L718V)	number of time points (EGFR_L858R)
`O=c1cc(-c2ccccc2)oc2cc(O[C@@H]3O[C@H](CO[C@@H]4O[C@H](CO)[C@@H](O)[C@H](O)[C@H]4O)[C@@H](O)[C@H](O)[C@H]3O)c(O)c(O)c12` [Oroxin B] (10 µM) is entered as 0	0	0	0	0	0	0	0	0	0
`CC(C)Oc1ccc(F)c(-c2cnc(N)c(C(=O)Nc3cnccc3N3CCC[C@@H](C(=O)O)C3)n2)c1` (2 µM) is entered as 0	0	1	0	3	0	0	0	0	1
